Data published in US20050181476A1.
These are yes or no findings as the source states them, for the method shown. In cells and extracts the contact can be indirect. Some results given as binding are weak or reduced against the parent protein; the word gives no strength.

Chains of the proteins cited; added tags and fusions are not shown. Lines headed by an entry give the natural chain unless they say otherwise; changes in a name come on top.
UniProt P51617: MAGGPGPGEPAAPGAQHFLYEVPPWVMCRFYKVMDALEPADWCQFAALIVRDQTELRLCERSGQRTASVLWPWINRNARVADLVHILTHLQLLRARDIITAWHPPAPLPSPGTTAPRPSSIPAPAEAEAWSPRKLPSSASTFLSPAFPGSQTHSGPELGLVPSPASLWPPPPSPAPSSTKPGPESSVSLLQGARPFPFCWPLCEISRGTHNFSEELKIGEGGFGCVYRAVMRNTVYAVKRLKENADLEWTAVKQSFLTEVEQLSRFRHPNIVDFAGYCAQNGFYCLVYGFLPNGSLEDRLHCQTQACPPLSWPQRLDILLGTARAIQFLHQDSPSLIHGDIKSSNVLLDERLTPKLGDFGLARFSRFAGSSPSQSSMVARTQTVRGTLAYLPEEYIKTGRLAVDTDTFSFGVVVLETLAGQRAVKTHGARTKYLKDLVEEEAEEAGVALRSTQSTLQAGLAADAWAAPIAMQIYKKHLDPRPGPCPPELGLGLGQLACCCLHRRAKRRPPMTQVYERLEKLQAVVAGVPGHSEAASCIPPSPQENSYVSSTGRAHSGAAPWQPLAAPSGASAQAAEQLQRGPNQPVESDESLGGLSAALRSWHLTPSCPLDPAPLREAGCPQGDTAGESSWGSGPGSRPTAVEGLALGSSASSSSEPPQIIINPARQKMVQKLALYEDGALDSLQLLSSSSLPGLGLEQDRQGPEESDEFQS
UniProt P22366: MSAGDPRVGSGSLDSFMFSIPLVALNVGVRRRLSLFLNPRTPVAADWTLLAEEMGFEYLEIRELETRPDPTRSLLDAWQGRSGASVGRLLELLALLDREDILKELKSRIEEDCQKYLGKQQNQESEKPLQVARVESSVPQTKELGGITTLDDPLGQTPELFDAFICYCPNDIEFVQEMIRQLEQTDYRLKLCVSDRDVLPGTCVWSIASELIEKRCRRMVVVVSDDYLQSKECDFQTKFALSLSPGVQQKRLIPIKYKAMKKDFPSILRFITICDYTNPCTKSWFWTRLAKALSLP

Biological target: IRAK-1KD (IRAK-1D340N) (UniProt P51617)
Assay: co-immunoprecipitation, HEK293T

E-MyD88S (from UniProt P22366 1-296)
binding: binds
